# Where a name gives a salt, the structure may show the parent alone. Read-outs that look alike come from different tables or passages of the source. Hit rate of the full screen: of about 3,300 compounds, about 95 (3%) showed an effect of 50% or more. The list shows a part of the results. Peptide text beside a SMILES is read from it.
# System: HCoV-229E
# Set-up: species or system Huh-7; HTS, protection from HCoV-229E induced cell death, luminescent cell viability (CellCounting-Lite 2.0), inhibition rate
# Details: 24 h post infection, 1 h compound pre-incubation, 10 µM, inhibitor
Structure (SMILES),229E Inhibition rate,"229E Inhibition rate (229E Inhibition rate, 24 h)"
"O=C(O)CCc1ccc(O)cc1O [3-(2,4-Dihydroxyphenyl)propanoic acid]",0%,–
C/C=C(/C)C(=O)O[C@@H]1[C@H](OC(=O)CC(C)C)c2c(ccc3ccc(=O)oc23)OC1(C)C [Praeruptorin C],32.9%,–
COc1ccc(-c2coc3cc(O)c(OC)c(O)c3c2=O)cc1 [Irisolidone],0%,–
CC(=O)O[C@@H]1CC[C@@]2(C)[C@@H](CC[C@]3(C)[C@@H]2[C@H](O)C=C2[C@@H]4[C@@H](C)[C@H](C)CC[C@]4(C)CC[C@]23C)[C@@]1(C)C(=O)O [3-O-Acetyl-11-hydroxy-beta-boswellic acid],0%,–
C[C@@H]1O[C@@H](O[C@H]2[C@H](Oc3cc(O)c4c(=O)cc(-c5ccc(O)cc5)oc4c3)O[C@H](CO[C@@H]3O[C@H](CO)[C@@H](O)[C@H](O)[C@H]3O)[C@@H](O)[C@@H]2O)[C@H](O)[C@H](O)[C@H]1O [Apigenin-7-O-(2G-rhamnosyl)gentiobioside],22.2%,–
COc1cc(O)c(CC=C(C)C)c2c1C(=O)CC(c1ccc(O)cc1)O2 (centres unmarked) [Isoxanthohumol],23.6%,–
CC(=O)CCC(=O)O [Levulinic acid],11.4%,–
Cn1c[n+]([C@@H]2O[C@H](CO)[C@@H](O)[C@H]2O)c2nc(N)[nH]c(=O)c21 [7-Methylguanosine],7.1%,–
C[C@@H]1CC[C@]2(C(=O)O)CC[C@]3(C)C(=CC[C@@H]4[C@@]5(C)CC[C@H](O)[C@@](C)(CO)[C@@H]5CC[C@]43C)[C@@H]2[C@]1(C)O [Rotundic acid],4.8%,–
CC(C)C[C@H](N)C(=O)N[C@@H](Cc1ccccc1)C(=O)O [Leucyl-phenylalanine] (H-Leu-Phe-OH),8.1%,–
CCCCCCCC/C=C\CCCCCCCC(=O)O[C@H]1CC[C@@]2(C)C(=CC[C@H]3[C@@H]4CC[C@H]([C@H](C)CCCC(C)C)[C@@]4(C)CC[C@@H]32)C1 [Cholesteryl oleate],8.1%,–
COc1cc(O)cc(CCc2cccc(O)c2)c1 [Batatasin III],12.4%,–
N[C@@H](CCSC[C@H](N)C(=O)O)C(=O)O [L-Cystathionine],6.6%,–
O=C(O)[C@@H](O)Cc1ccccc1 [(S)-2-Hydroxy-3-phenylpropanoic acid],0%,–
CSC[C@H](N)C(=O)O [S-Methyl-L-cysteine],14%,–
O=C1N[C@@H](Cc2c[nH]c3ccccc23)C(=O)N2CCC[C@@H]12 [Brevianamide F],20.1%,–
COc1cc2c(cc1O)CC[n+]1cc3c4c(ccc3cc1-2)OCO4 [Groenlandicine],8.1%,–
COc1ccc(-c2coc3cc(O[C@@H]4O[C@H](CO)[C@@H](O)[C@H](O)[C@H]4O)ccc3c2=O)cc1 [Ononin],10.6%,–
OC1C[C@H]2CC[C@@H](C1)N2 (some centres unmarked) [Nortropine],11.4%,–
C[C@H]1COC2=C1C(=O)C(=O)c1c2ccc2c1CCCC2(C)C [Cryptotanshinone],14.8%,–

# Copied from the entries so far (5 entries):
Structure (SMILES),229E Inhibition rate,"229E Inhibition rate (229E Inhibition rate, 24 h)"
CC(=O)O[C@@H]1CC[C@@]2(C)[C@@H](CC[C@]3(C)[C@@H]2[C@H](O)C=C2[C@@H]4[C@@H](C)[C@H](C)CC[C@]4(C)CC[C@]23C)[C@@]1(C)C(=O)O [3-O-Acetyl-11-hydroxy-beta-boswellic acid],0%,–
C[C@@H]1O[C@@H](O[C@H]2[C@H](Oc3cc(O)c4c(=O)cc(-c5ccc(O)cc5)oc4c3)O[C@H](CO[C@@H]3O[C@H](CO)[C@@H](O)[C@H](O)[C@H]3O)[C@@H](O)[C@@H]2O)[C@H](O)[C@H](O)[C@H]1O [Apigenin-7-O-(2G-rhamnosyl)gentiobioside],22.2%,–
COc1cc(O)c(CC=C(C)C)c2c1C(=O)CC(c1ccc(O)cc1)O2 (centres unmarked) [Isoxanthohumol],23.6%,–
CC(=O)CCC(=O)O [Levulinic acid],11.4%,–
Cn1c[n+]([C@@H]2O[C@H](CO)[C@@H](O)[C@H]2O)c2nc(N)[nH]c(=O)c21 [7-Methylguanosine],7.1%,–

# Continuation:

Structure (SMILES),229E Inhibition rate,"229E Inhibition rate (229E Inhibition rate, 24 h)"
C=C1C[C@@]23CC[C@H]4[C@@](C)(CCC[C@@]4(C)C(=O)O[C@@H]4O[C@H](CO)[C@@H](O)[C@H](O)[C@H]4O)[C@@H]2CC[C@]1(O[C@@H]1O[C@H](CO)[C@@H](O)[C@H](O)[C@H]1O[C@@H]1O[C@H](CO)[C@@H](O)[C@H](O)[C@H]1O)C3 [Stevioside],0%,–
COc1cc(/C=C/C(=O)O[C@H]2[C@H](O)[C@@H](CO)O[C@@]2(CO)O[C@H]2O[C@H](COC(=O)c3ccc(O)cc3)[C@@H](O)[C@H](O)[C@H]2O)cc(OC)c1O [Tenuifoliside B],0%,–
CC(=O)OC[C@H]1O[C@@H](O[C@@H]2[C@@H](O)[C@H](O[C@@H]3[C@H](O)C(C)(C)C[C@H]4C5=CC[C@@H]6[C@@]7(C)CC[C@H](O[C@@H]8O[C@H](C(=O)O)[C@@H](O)[C@H](O)[C@H]8O[C@@H]8O[C@H](CO)[C@H](O)[C@H](O)[C@H]8O[C@@H]8O[C@H](CO)[C@@H](O)[C@H](O)[C@H]8O)[C@](C)(CO)[C@@H]7CC[C@@]6(C)[C@]5(C)CC[C@@]34C)OC[C@@H]2O)[C@H](OC(C)=O)[C@@H](OC(C)=O)[C@@H]1OC(C)=O [Soyasaponin Ab],46.7%,–
O[C@H]1[C@H]2c3cc4c(cc3CN3CC[C@H](C[C@@H]1O)[C@H]23)OCO4 [Dihydrolycorine],10.9%,–
CN(C)C [Trimethylammonium chloride],6%,–
C[C@@]12C[C@@]3(O)O[C@@H](O1)[C@]1(COC(=O)c4ccccc4)[C@@H]3C[C@]12O[C@@H]1O[C@H](COC(=O)c2cc(O)c(O)c(O)c2)[C@@H](O)[C@H](O)[C@H]1O [Galloylpaeoniflorin],1.9%,–
CCc1cnccn1 [2-Ethylpyrazine],16.9%,–
COc1cc(O)ccc1CCC(=O)c1ccc(O)cc1 [Loureirin C],24.7%,–
CN1Cc2c(ccc3c2OCO3)[C@@]2(C)[C@@H](O)Cc3cc4c(cc3[C@@H]12)OCO4 [Corynoline],17.1%,–
COc1cc(O)c(C(=O)/C=C/c2ccccc2)c(O)c1 [Pinostrobin chalcone],0%,–
CC(=O)OC1CC(C)CCC1C(C)C (centres unmarked) [Menthyl acetate],23.3%,–
OC[C@H]1O[C@@H]2O[C@H]3[C@H](O)[C@@H](O)[C@@H](O[C@H]4[C@H](O)[C@@H](O)[C@@H](O[C@H]5[C@H](O)[C@@H](O)[C@@H](O[C@H]6[C@H](O)[C@@H](O)[C@@H](O[C@H]7[C@H](O)[C@@H](O)[C@@H](O[C@H]8[C@H](O)[C@@H](O)[C@@H](O[C@H]9[C@H](O)[C@@H](O)[C@@H](O[C@H]1[C@H](O)[C@H]2O)O[C@@H]9CO)O[C@@H]8CO)O[C@@H]7CO)O[C@@H]6CO)O[C@@H]5CO)O[C@@H]4CO)O[C@@H]3CO [γ-Cyclodextrin],21.1%,–
COC(=O)c1ccc(OC)cc1 [Methyl anisate],12.5%,–
COc1ccc2ccc(=O)oc2c1CC(=O)C(C)C [Isomerazin],17.3%,–
CC[C@H](CC[C@@H](C)[C@H]1CC[C@H]2[C@@H]3CC=C4C[C@@H](O)CC[C@]4(C)[C@H]3CC[C@]12C)C(C)C [Beta-Sitosterol (purity>98%)],–,23.1%
O=C(O)CCc1c[nH]c2ccccc12 [3-Indolepropionic acid],23.3%,–
N#Cc1cn([C@@H]2O[C@H](CO)[C@@H](O)[C@H]2O)c2ncnc(N)c12 [Toyocamycin],15.3%,–
CCCCCC/C=C\CCCCCCCCCCCC(=O)O [Paullinic acid],40%,–
CC1=CC(=O)C(C(C)C)CC1 (centres unmarked) [Piperitone],19.5%,–
CCCCCCCCCCCCCCCC(=O)OCC [Ethyl palmitate],17.7%,–

Structure (SMILES),229E Inhibition rate,"229E Inhibition rate (229E Inhibition rate, 24 h)"
OC[C@@H](O)[C@H](O)[C@@H](O)CO [Xylitol],29.9%,–
COc1ccc(/C=C/C(=O)c2c(O)cc(O[C@@H]3O[C@H](CO[C@@H]4O[C@@H](C)[C@H](O)[C@@H](O)[C@H]4O)[C@@H](O)[C@H](O)[C@H]3O)cc2OC)cc1O [Hesperidin methylchalcone],36.6%,–
CCCCCC1CCCC(=O)O1 (centres unmarked) [δ-Decalactone],16.6%,–
O=C1CC[C@H](NC(=O)Cc2ccccc2)C(=O)N1 [Antineoplaston A10],7.8%,–
COc1cccc(O)c1-c1cc(=O)c2c(O)c(OC)c(OC)c(OC)c2o1 [Skullcapflavone II],14.2%,–
O=C(O)C(=O)c1ccccc1 [Phenylglyoxylic acid],0%,–
COc1cc(/C=C/C(=O)N2CCC=CC2=O)cc(OC)c1OC [Piperlongumine],3.4%,–
Cc1ncc([N+](=O)[O-])n1CC(O)CCl (centres unmarked) [Ornidazole],23.7%,–
CC(C)c1cc2c(c(O)c1O)[C@@]13CCCC(C)(C)[C@@H]1[C@H](OC3=O)[C@H]2O [Rosmanol],0%,–
C[C@@H]1CC[C@]2(C(=O)O)CC[C@]3(C)C(=CC[C@@H]4[C@@]5(C)CC[C@H](O)C(C)(C)[C@@H]5CC[C@]43C)[C@@H]2[C@]1(C)O [Pomolic acid],5.3%,–
NC(C(=O)O)C(=O)O [Aminomalonic acid],7.3%,–
COc1cc([C@H]2c3cc(O)c(OC)cc3C[C@@H](CO)[C@@H]2CO)ccc1O [(+)-Isolariciresinol],0%,–
N=C(N)N [Guanidine (hydrochloride)],9%,–
CCCCCC/C=C\CCCCCCCc1cccc(O)c1C(=O)O [Ginkgolic Acid],13.6%,–
O=C1Cc2ccccc2N1 [Oxindole],15.9%,–
Cn1cncc1CCN [3-Methylhistamine (dihydrochloride)],13.5%,–
O=C(O)CCC(=O)O [Succinic acid],–,11.1%
C=C1C[C@@]23CC[C@H]4[C@@](C)(CCC[C@@]4(C)C(=O)O[C@@H]4O[C@H](CO)[C@@H](O)[C@H](O)[C@H]4O)[C@@H]2CC[C@]1(O[C@@H]1O[C@H](CO)[C@@H](O)[C@H](O)[C@H]1O[C@@H]1O[C@H](CO)[C@@H](O)[C@H](O[C@@H]2O[C@H](CO)[C@@H](O)[C@H](O)[C@H]2O)[C@H]1O)C3 [Rebaudioside A],11.5%,–
O=C(O)/C=C\c1ccc2occc2c1O[C@@H]1O[C@H](CO)[C@@H](O)[C@H](O)[C@H]1O [Isopsoralenoside],15.3%,–
